Experimental data as given in the supplement of paper PMC10849652.
This is one part of the list.

Protein sequences, listed by entry. Tags and fused reporters are not part of them. Lines headed by an entry give the natural chain unless they say otherwise; changes in a name come on top.
UniProt Q969R8: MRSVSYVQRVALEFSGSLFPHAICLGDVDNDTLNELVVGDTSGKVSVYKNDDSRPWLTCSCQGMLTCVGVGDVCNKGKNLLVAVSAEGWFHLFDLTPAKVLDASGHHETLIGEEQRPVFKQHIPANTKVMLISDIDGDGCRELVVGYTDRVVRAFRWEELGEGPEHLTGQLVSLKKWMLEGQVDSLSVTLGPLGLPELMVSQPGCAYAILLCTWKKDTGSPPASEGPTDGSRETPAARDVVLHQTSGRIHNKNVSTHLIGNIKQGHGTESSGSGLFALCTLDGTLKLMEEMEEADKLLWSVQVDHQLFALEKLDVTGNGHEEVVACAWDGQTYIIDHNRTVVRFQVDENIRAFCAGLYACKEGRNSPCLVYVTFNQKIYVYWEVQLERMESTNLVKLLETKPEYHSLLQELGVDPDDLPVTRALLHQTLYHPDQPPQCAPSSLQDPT
UniProt P19823: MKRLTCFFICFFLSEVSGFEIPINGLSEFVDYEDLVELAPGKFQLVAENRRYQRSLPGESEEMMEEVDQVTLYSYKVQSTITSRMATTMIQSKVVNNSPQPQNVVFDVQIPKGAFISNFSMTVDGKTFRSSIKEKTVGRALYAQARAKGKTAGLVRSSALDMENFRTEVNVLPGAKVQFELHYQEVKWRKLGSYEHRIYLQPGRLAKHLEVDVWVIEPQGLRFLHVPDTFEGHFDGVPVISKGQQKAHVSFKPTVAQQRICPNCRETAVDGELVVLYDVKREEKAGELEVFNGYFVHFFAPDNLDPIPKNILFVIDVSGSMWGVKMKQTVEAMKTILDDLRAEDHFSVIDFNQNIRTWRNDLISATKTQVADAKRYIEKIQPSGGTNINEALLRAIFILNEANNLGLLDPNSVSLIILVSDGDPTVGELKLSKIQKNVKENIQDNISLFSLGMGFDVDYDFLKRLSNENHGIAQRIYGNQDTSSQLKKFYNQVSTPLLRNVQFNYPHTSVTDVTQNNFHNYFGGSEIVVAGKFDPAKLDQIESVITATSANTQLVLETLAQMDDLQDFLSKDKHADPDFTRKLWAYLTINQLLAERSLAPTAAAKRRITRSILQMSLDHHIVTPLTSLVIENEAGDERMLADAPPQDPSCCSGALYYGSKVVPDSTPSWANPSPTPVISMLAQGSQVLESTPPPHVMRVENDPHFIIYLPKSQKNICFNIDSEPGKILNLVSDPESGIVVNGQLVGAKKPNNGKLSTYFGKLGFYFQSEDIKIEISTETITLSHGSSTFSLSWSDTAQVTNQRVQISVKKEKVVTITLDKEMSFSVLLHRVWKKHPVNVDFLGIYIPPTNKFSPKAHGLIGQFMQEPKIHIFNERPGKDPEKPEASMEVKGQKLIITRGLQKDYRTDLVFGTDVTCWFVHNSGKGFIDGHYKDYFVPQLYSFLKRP
UniProt Q9H7Z6: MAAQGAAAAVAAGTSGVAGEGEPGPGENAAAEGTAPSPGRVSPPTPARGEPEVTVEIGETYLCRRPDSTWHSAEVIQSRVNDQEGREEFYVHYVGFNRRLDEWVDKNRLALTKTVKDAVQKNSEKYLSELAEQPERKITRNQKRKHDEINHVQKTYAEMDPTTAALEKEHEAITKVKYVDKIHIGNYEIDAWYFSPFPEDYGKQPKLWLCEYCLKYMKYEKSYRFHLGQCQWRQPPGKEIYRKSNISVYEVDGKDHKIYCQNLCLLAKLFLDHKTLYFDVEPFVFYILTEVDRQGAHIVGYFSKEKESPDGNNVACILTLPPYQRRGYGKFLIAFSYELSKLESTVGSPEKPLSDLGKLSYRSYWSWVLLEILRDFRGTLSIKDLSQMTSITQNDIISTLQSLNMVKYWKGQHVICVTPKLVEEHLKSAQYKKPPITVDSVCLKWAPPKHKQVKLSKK
UniProt P0C870: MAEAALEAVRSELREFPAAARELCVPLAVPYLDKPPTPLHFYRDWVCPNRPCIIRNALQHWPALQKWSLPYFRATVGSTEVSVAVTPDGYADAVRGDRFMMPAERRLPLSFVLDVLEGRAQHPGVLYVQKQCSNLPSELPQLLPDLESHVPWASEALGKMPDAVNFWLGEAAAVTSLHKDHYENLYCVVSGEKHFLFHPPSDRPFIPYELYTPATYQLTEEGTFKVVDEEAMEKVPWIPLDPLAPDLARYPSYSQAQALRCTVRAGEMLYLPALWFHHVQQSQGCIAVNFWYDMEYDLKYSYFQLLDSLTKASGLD
UniProt Q96A47: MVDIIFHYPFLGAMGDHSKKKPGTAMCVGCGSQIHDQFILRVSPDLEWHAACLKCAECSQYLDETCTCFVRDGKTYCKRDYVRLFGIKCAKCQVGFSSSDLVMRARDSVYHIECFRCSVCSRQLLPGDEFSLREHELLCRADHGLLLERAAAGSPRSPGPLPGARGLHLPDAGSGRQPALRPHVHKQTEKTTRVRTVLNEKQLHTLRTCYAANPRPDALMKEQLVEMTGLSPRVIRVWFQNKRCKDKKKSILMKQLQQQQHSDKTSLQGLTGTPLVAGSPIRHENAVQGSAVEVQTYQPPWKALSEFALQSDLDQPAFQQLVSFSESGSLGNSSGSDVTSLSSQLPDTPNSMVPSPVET
UniProt Q8NAX2: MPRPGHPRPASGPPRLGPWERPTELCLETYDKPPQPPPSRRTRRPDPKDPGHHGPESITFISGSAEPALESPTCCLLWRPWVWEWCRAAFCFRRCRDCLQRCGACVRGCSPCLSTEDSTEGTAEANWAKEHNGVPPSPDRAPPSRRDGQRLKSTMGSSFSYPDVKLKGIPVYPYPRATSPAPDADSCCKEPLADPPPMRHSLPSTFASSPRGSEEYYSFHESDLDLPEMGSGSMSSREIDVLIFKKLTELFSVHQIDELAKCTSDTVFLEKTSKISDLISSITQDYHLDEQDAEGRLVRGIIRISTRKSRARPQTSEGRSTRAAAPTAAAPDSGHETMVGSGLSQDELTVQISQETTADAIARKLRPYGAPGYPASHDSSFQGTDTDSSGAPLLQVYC
UniProt Q14681: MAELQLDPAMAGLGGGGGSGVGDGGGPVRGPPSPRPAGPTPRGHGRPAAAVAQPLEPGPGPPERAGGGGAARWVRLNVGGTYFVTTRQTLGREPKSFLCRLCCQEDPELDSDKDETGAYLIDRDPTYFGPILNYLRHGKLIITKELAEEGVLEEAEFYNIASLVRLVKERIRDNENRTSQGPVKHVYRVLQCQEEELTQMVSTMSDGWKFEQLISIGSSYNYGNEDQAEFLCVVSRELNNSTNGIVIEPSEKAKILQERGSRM
UniProt O95251, whole entry, looked up: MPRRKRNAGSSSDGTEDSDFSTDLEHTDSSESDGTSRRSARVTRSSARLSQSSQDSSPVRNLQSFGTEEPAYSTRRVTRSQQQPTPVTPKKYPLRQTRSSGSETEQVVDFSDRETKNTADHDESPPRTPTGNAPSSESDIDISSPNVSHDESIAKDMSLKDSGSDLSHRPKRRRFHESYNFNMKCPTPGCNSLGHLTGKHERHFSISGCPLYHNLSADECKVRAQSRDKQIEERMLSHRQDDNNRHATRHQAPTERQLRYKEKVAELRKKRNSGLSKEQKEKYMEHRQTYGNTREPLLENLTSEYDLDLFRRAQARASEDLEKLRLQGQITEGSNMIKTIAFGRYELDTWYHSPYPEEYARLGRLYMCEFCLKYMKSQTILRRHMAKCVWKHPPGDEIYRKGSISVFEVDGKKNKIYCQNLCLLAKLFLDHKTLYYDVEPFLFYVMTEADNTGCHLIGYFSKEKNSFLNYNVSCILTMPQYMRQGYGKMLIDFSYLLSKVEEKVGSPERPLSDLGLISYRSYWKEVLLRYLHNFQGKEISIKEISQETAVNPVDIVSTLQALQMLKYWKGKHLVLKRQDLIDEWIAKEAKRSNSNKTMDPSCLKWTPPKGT
UniProt O00180: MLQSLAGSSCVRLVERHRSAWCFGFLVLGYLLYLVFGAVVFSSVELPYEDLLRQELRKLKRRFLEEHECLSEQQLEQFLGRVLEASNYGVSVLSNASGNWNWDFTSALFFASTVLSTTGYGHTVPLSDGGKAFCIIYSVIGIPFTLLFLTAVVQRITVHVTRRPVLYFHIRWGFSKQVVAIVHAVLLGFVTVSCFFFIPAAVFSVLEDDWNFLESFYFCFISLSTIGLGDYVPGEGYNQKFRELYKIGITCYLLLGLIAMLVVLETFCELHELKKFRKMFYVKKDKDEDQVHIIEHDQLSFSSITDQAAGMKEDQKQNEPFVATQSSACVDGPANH
UniProt Q9UL03, whole entry, looked up: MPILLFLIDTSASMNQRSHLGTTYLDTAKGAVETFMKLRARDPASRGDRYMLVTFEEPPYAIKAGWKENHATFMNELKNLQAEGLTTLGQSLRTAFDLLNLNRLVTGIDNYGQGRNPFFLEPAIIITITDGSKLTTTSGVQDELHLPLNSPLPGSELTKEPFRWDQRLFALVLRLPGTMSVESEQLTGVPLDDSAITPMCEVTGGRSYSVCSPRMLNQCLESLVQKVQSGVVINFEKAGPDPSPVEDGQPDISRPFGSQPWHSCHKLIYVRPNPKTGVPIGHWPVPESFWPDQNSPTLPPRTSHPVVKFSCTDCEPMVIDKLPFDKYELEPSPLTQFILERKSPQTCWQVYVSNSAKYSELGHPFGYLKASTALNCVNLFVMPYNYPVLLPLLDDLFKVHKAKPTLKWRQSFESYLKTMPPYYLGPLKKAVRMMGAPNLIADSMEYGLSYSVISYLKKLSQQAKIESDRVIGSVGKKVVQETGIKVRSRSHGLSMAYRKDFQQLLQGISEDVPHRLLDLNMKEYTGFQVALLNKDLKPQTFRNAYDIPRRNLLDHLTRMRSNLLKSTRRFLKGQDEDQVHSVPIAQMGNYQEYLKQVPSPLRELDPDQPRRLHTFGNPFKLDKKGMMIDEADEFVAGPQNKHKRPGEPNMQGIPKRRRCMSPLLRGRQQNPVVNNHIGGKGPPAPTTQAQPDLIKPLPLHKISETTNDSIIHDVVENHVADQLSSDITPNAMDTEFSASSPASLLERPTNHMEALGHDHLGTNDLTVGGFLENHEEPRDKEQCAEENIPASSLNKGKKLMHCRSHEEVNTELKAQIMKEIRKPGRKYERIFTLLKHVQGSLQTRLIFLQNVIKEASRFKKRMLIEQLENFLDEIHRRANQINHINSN
UniProt Q96DY2: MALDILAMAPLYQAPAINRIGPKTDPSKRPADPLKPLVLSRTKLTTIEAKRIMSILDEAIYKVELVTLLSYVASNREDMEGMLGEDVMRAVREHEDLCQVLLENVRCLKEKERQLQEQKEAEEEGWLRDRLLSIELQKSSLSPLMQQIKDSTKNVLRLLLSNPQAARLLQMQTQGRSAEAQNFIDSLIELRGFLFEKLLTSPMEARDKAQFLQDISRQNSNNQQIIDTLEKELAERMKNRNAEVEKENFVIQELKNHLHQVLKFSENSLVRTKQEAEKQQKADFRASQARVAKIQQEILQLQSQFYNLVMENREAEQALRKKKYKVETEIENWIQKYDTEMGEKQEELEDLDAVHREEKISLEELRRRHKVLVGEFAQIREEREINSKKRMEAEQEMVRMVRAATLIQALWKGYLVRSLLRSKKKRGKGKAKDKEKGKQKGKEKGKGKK
UniProt Q4G0X4: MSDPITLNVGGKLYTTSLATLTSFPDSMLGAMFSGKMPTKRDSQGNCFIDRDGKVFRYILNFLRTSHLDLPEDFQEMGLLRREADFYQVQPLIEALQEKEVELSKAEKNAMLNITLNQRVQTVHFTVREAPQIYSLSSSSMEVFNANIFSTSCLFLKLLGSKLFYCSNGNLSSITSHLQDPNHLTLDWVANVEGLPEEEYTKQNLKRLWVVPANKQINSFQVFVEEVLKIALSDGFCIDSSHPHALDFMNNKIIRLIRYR
UniProt Q674X7: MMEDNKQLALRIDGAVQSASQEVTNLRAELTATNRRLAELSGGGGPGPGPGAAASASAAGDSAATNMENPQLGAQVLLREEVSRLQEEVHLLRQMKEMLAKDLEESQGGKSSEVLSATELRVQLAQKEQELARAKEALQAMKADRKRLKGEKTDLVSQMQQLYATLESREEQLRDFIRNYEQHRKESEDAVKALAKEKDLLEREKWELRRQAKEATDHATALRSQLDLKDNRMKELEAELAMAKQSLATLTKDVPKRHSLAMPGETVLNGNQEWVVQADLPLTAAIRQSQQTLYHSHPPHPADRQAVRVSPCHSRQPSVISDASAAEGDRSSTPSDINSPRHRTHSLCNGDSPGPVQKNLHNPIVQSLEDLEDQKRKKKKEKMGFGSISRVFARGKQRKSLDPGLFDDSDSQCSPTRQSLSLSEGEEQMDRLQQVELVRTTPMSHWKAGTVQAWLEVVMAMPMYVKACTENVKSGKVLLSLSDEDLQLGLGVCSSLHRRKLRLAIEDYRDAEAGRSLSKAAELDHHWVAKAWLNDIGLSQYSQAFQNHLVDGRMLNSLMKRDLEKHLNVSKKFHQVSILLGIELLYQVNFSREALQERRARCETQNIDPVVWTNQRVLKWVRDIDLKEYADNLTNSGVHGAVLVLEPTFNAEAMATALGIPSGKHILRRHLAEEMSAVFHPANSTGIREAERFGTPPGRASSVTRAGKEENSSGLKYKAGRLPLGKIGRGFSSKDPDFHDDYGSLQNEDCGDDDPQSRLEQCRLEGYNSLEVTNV

Tests used:
Assay in all cases: log2 fold change, soluble protein after heating vs DMSO (PISA); higher = thermal stabilisation; K562 lysate, 10 uM; active = over 0.2 and 3.5 SD of the protein, either way, in both replicates (recomputed)
ibrutinib = compound: C=CC(=O)N1CCC[C@@H](n2nc(-c3ccc(Oc4ccccc4)cc3)c3c(N)ncnc32)C1 [ibrutinib]
Outline: (§1)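 K562 pellets were dounce-homogenised in PBS pH 7.4 with 1 mM MgCl2, and the crude extract at 1 mg/mL protein was treated with 10 μM compound for 30 min. Aliquots were heated for 3 min across 48°C-58°C, pooled, and brought to 0.5% NP-40 at 4°C; soluble protein was the supernatant after 21,000xg for 90 min. Soluble protein was quantified by TMTpro 16plex LC-MS/MS with channel sums equalised, and reported as log2 fold change in thermal stability against DMSO controls, with values from duplicates.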

[1] = compound: CC(=O)c1cnc2ccc(-c3cc(Cl)c(O)c(Cl)c3)nc2c1N[C@H]1CC[C@H](CN(C)C)CC1
Outline: as §1

ralimetinib = compound: CC(C)(C)Cn1c(N)nc2ccc(-c3[nH]c(C(C)(C)C)nc3-c3ccc(F)cc3)nc21 [ralimetinib]
Outline: as §1

[2] = compound: CC(C)(O)CC(=O)NCCn1ccc2ncnc(Nc3ccc(Oc4cccc(C(F)(F)F)c4)c(Cl)c3)c21
Outline: as §1

[3] = compound: CC(C)C1=C2N=C(C=C(N2N=C1)NCC3=CC=CC=C3)NCCCCCCN
Outline: as §1

[4] = compound: CC1=C(C2=C(C=C1)C(=O)C3=CC=CC=C3N2CCCN)C
Outline: as §1

[5] = compound: CC1=C(C=C(C=C1)NC(=O)C2=CC(=CC=C2)C(C)(C)C#N)NC3=CC4=C(C=C3)N=CN(C4=O)C
Outline: as §1

[6] = compound: CC1=C(C=C(C=C1)NC(=O)C2=CC(=CC=C2)N(C)C)NC(=O)C3=CC=C(C=C3)O
Outline: as §1

[7] = compound: CC1=CC=C(C=C1)SC2=C3C=C(SC3=CN=C2)C(=O)N
Outline: as §1

[8] = compound: CC1=C(C(CC(=O)N1)C2=CC=C(C=C2)C(F)(F)F)C(=O)NC3=C(C=C4C(=C3)C=NN4)F
Outline: as §1

Measured: log2 fold change

ITM2C (UniProt Q9NQX7)
inactive: ibrutinib -0.201 | [1] -0.525 | ralimetinib -0.056 | [2] -0.069 | [3] -0.016 | [4] -0.083 | [5] -0.185 | [6] 0.113 | [7] -0.155

ITFG2 (UniProt Q969R8)
inactive: ibrutinib 0.011 | [1] 0.008 | ralimetinib 0.067 | [2] 0 | [3] -0.042 | [8] 0.015 | [4] -0.031 | [5] -0.032 | [6] -0.028 | [7] 0.009

ITIH2 (UniProt P19823)
inactive: ibrutinib -0.011 | [1] -0.024 | ralimetinib -0.032 | [2] -0.089 | [8] -0.171 | [5] 0.037 | [6] 0.028 | [7] 0.005

KAT8 (UniProt Q9H7Z6)
inactive: ibrutinib -0.034 | [1] -0.009 | ralimetinib 0.012 | [2] 0.005 | [3] 0.01 | [8] 0.044 | [4] 0.015 | [5] -0.004 | [6] 0.002 | [7] 0.015

ITGB1BP1 (UniProt O14713)
inactive: ibrutinib -0.061 | [1] -0.028 | ralimetinib -0.119 | [2] -0.217 | [3] 0.094 | [8] -0.082 | [4] 0.069 | [6] 0.016 | [7] 0.071

JMJD7 (UniProt P0C870)
inactive: ibrutinib -0.094 | [1] -0.023 | ralimetinib -0.073 | [2] -0.11 | [3] 0.049 | [8] 0.086 | [4] -0.162 | [6] 0.043 | [7] 0.034

ISOC2 (UniProt Q96AB3)
inactive: ibrutinib 0.017 | [1] -0.021 | ralimetinib 0.056 | [2] 0.024 | [3] 0.014 | [8] -0.004 | [4] -0.131 | [5] 0.054 | [6] 0.041 | [7] 0.035

JAG2 (UniProt Q9Y219)
inactive: ibrutinib 0.035 | [1] -0.056 | ralimetinib -0.028 | [2] 0.05 | [3] 0.048 | [4] 0.171 | [5] 0.172 | [6] -0.037 | [7] 0.18

KDELR2 (UniProt P33947)
inactive: ibrutinib 0.044 | [1] -0.047 | ralimetinib 0.032 | [2] 0.035 | [3] 0.024 | [8] -0.006 | [4] -0.032 | [5] 0.041 | [6] -0.022 | [7] -0.027

ISL2 (UniProt Q96A47)
inactive: ibrutinib 0.05 | ralimetinib 0.056 | [2] -0.089 | [3] 0.019 | [4] -0.003 | [5] -0.075 | [6] 0.01

KCTD13 (UniProt Q8WZ19)
inactive: ibrutinib -0.168 | ralimetinib 0.117 | [2] 0.005 | [3] -0.249 | [8] -0.024 | [4] 0.049 | [5] 0.042 | [6] 0.064

KDF1 (UniProt Q8NAX2)
inactive: ibrutinib -0.004 | [1] 0 | [3] 0.001 | [8] -0.013 | [5] 0.054 | [7] 0.115

ITPRID2 (UniProt P28290)
inactive: ibrutinib -0.033 | [1] -0.069 | ralimetinib 0.064 | [2] 0 | [3] 0.09 | [8] -0.056 | [6] 0.004 | [7] 0.109

KCTD2 (UniProt Q14681)
inactive: ibrutinib 0.004 | [1] 0.114 | [8] -0.018 | [4] 0.018 | [5] 0.007 | [7] 0.007

JMY (UniProt Q8N9B5)
inactive: ibrutinib 0.117 | ralimetinib 0.176 | [2] -0.113 | [3] -0.145 | [4] -0.018 | [5] -0.087 | [6] 0.197

KAT7 (UniProt O95251)
inactive: ibrutinib 0.018 | [1] 0.04 | ralimetinib -0.127 | [2] -0.021 | [3] 0.009 | [8] 0.103 | [4] 0.077 | [5] 0.083 | [6] -0.039 | [7] -0.037

KAT6B (UniProt Q8WYB5)
inactive: ibrutinib 0.029 | [1] 0.03 | ralimetinib 0.087 | [2] -0.013 | [3] -0.077 | [4] -0.058 | [5] 0.278 | [6] -0.047 | [7] -0.001

ITM2A (UniProt O43736)
inactive: ibrutinib 0.206 | [1] -0.055 | ralimetinib -0.019 | [2] -0.094 | [3] -0.051 | [8] 0.085 | [4] -0.031 | [6] 0.065 | [7] 0.288

KDM3A (UniProt Q9Y4C1)
inactive: ibrutinib 0.005 | ralimetinib -0.065 | [2] -0.069 | [3] 0.09 | [8] 0.043 | [4] -0.025 | [5] -0.007 | [6] 0.045

KAT14 (UniProt Q9H8E8)
inactive: ibrutinib -0.071 | [1] 0.013 | [3] -0.06 | [7] 0.112

KCNK1 (UniProt O00180)
inactive: ibrutinib -0.084 | [1] 0.06 | [3] -0.031 | [8] -0.059 | [4] -0.171 | [7] -0.036

ITM2B (UniProt Q9Y287)
inactive: ibrutinib -0.04 | ralimetinib 0.131 | [2] -0.106 | [3] -0.044 | [8] 0.051 | [4] -0.011 | [5] 0.019 | [6] -0.088

KBTBD7 (UniProt Q8WVZ9)
inactive: ibrutinib 0.054 | [1] 0.004 | ralimetinib -0.001 | [2] -0.02 | [3] 0.01 | [4] -0.009 | [5] 0.048 | [6] 0.023 | [7] 0.03

ITPKC (UniProt Q96DU7)
inactive: ibrutinib 0.004 | ralimetinib -0.019 | [2] -0.061 | [3] 0.067 | [8] 0.017 | [4] -0.021 | [5] 0.069 | [6] 0.156

INTS6 (UniProt Q9UL03)
inactive: ibrutinib -0.034 | [1] 0.123 | [3] 0.008 | [8] 0.344 | [4] -0.062 | [5] 0.067 | [7] 0.023

IQCD (UniProt Q96DY2)
inactive: ibrutinib -0.01 | [1] -0.065 | [8] 0.012 | [7] 0.043

KCTD21 (UniProt Q4G0X4)
inactive: ibrutinib -0.136 | ralimetinib 0.009 | [2] -0.104 | [3] 0.016 | [8] 0.047 | [5] 0.018 | [6] 0.078

KAZN isoform 3 (UniProt Q674X7)
inactive: ibrutinib -0.017 | ralimetinib -0.244 | [2] 0.063 | [3] 0.032 | [5] -0.014 | [6] 0.169

ITIH4 (UniProt Q14624)
inactive: ibrutinib 0.025 | ralimetinib -0.026 | [2] -0.117 | [3] -0.097 | [4] -0.084 | [6] 0.022

KDM2A (UniProt Q9Y2K7)
inactive: ibrutinib 0.028 | ralimetinib 0.168 | [2] 0.148 | [3] 0.052 | [8] 0.023 | [4] -0.025 | [6] 0.067

Six consecutive entries from above:
KCTD13 (UniProt Q8WZ19)
inactive: ibrutinib -0.168 | ralimetinib 0.117 | [2] 0.005 | [3] -0.249 | [8] -0.024 | [4] 0.049 | [5] 0.042 | [6] 0.064

KDF1 (UniProt Q8NAX2)
inactive: ibrutinib -0.004 | [1] 0 | [3] 0.001 | [8] -0.013 | [5] 0.054 | [7] 0.115

ITPRID2 (UniProt P28290)
inactive: ibrutinib -0.033 | [1] -0.069 | ralimetinib 0.064 | [2] 0 | [3] 0.09 | [8] -0.056 | [6] 0.004 | [7] 0.109

KCTD2 (UniProt Q14681)
inactive: ibrutinib 0.004 | [1] 0.114 | [8] -0.018 | [4] 0.018 | [5] 0.007 | [7] 0.007

JMY (UniProt Q8N9B5)
inactive: ibrutinib 0.117 | ralimetinib 0.176 | [2] -0.113 | [3] -0.145 | [4] -0.018 | [5] -0.087 | [6] 0.197

KAT7 (UniProt O95251)
inactive: ibrutinib 0.018 | [1] 0.04 | ralimetinib -0.127 | [2] -0.021 | [3] 0.009 | [8] 0.103 | [4] 0.077 | [5] 0.083 | [6] -0.039 | [7] -0.037

Next results follow:

KCNK5 (UniProt O95279)
inactive: ibrutinib -0.125 | [1] 0.097 | [3] 0.167 | [8] -0.062 | [4] -0.057 | [5] 0.229 | [7] -0.345
